We go through five molecules from patent US20210101945A1 (University of Washington, published 2021).

Results are given in words; binding and its absence hold for the method and conditions named. Some results given as binding are weak or reduced against the parent protein; the word gives no strength.

Targets include 2L6HC3_AXBX; 2L6HC3_XBXA; 2L6HC3_AXAX; 2L6HC3_XAAA; 2L6HC3_AXXB.
Common to all, as to assay: in vitro oligomeric state (SEC-MALS, FIG. 5G); homotrimer
On the technique in general: SEC sorts molecules by how far they enter the pores of the column.

B1: 2L6HC3_AXBX (designed binder)
chain: GTKYKIREMLEEAKRSLEELRRILEKLKESLRELRRNPSEDALVNNNEVIVKAIEASVENQRIIIELARMLAESD
As to B1, in the assay with 2L6HC3_AXBX, the binding result is “binds”.

B2: 2L6HC3_XBXA (designed binder)
chain: GTKYELRRQLEELEKLLRELRKSLDELRKILEELERNPSEDVIVRAIKASVKNQEIIVEVLRAIIENNKTIAKSD
On to B2, for which the binding entry in the assay with 2L6HC3_XBXA is on record as “binds”.

B3: 2L6HC3_AXAX (designed binder)
chain: GTKYEIREALKEAQKQLEDLKRMLDELRRNLEELKRNPSEDALVENNELIVRVLEVIVENNRSIIEILKLLAKSD
As to B3, the binding entry in the assay with 2L6HC3_AXAX is given as “binds”.

B4: 2L6HC3_XAAA (designed binder)
chain: GTKYEARKQLEEMKKQLKDLKRSLERLREILERLEENPSEDVIVEAIRAIVENNKQIVENNRSIIENNETIIRSD
For B4, in the assay with 2L6HC3_XAAA, the binding result is listed as “binds”.

B5: 2L6HC3_AXXB (designed binder)
chain: GTKYRIKDTLRELKRALEELKKILEELQRSLEELRRNPSEDALVNNNEVIVKAIEAAVRAIEISAENQRMLAESD
For the molecule B5, the binding entry with 2L6HC3_AXXB was “binds”.
